# No constants are given. Whether binding was seen depends on the method and setting. For some assays here: In cells and extracts the contact can be indirect. Some entries that bind do so weakly or less than the wild type. For some assays here: Sequences can lack the tags named with a protein.
# Chains of the proteins cited; added tags and fusions are not shown. Lines headed by an entry give the natural chain unless they say otherwise; changes in a name come on top.
# UniProt Q92847: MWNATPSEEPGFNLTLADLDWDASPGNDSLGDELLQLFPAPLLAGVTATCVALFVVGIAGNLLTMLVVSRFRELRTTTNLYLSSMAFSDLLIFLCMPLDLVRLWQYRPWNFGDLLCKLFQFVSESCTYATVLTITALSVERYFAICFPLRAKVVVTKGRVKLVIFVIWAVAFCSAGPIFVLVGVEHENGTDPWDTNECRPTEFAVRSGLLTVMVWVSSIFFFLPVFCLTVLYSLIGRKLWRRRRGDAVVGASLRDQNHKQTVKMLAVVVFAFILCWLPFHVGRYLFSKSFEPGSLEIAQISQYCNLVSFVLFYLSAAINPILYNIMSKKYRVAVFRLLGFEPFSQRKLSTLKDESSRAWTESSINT
# UniProt P41968: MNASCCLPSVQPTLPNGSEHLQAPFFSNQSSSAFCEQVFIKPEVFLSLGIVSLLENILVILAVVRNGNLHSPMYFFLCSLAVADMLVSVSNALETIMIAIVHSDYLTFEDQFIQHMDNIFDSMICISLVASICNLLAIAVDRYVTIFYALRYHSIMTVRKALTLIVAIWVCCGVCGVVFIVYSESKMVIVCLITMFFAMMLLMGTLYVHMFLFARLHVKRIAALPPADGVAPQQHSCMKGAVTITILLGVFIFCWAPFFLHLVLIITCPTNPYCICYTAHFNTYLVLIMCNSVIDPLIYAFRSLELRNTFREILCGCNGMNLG
# UniProt P14416: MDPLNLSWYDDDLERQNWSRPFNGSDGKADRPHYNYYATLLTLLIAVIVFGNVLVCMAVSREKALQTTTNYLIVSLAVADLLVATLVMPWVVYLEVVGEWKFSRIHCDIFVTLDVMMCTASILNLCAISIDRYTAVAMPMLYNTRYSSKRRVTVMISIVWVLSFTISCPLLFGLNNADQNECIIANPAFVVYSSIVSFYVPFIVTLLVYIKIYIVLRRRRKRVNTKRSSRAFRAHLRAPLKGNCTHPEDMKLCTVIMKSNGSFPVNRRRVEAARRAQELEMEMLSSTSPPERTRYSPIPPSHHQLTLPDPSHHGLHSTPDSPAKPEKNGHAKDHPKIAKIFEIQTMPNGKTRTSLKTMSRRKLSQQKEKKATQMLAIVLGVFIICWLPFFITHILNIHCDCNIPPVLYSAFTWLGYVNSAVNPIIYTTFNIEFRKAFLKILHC
# UniProt P28222: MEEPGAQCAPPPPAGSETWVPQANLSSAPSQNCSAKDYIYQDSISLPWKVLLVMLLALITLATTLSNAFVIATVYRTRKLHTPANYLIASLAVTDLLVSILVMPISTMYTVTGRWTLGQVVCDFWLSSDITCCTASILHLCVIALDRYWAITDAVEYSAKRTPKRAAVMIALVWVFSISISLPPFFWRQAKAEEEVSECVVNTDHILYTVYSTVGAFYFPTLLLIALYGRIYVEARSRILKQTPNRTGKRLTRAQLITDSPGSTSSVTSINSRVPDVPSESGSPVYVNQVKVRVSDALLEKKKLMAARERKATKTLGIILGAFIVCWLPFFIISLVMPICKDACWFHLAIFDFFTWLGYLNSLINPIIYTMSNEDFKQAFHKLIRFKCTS
# B1: trace amine associated receptor 1 (TAAR1), NHA- or C-Flag-tagged, for sandwich ELISA (receptor, UniProt Q96RJ0 1-339)
# chain: MMPFCHNIINISCVKNNWSNDVRASLYSLMVLIILTTLVGNLIVIVSISHFKQLHTPTNWLIHSMATVDFLLGCLVMPYSMVRSAEHCWYFGEVFCKIHTSTDIMLSSASIFHLSFISIDRYYAVCDPLRYKAKMNILVICVMIFISWSVPAVFAFGMIFLELNFKGAEEIYYKHVHCRGGCSVFFSKISGVLTFMTSFYIPGSIMLCVYYRIYLIAKEQARLISDANQKLQIGLEMKNGISQSKERKAVKTLGIVMGVFLICWCPFFICTVMDPFLHYIIPPTLNDVLIWFGYLNSTFNPMVYAFFYPWFRKALKMMLFGKIFQKDSSRCKLFLELSS
# Assays:
# [1] = molecular target: growth hormone secretagogue receptor (GHSR), NHA- or FLAG-tagged, for sandwich ELISA (human) (UniProt Q92847); experiment: ELISA; sandwich ELISA: COS7 cells co-transfected with an NHA-tagged and a C-Flag-tagged receptor (and reversely tagged, data pooled), lysed 48 h after transfection, lysate on an anti-Flag-M2 coated plate, detected with biotin-labeled anti-HA antibody and streptavidin-HRP; fold over mock …
# [2] = molecular target: Melanocortin-3 receptor (MC3R), CFP- or YFP-tagged, for FRET (UniProt P41968); experiment: FRET or BRET; FRET by acceptor photobleaching in HEK293 cells co-transfected with a CFP-tagged and a YFP-tagged receptor (and vice versa), 72 h after transfection; a stable interaction defined by a FRET efficiency between 8 and 25%
# [3] = molecular target: DRD2 (D2R), NHA- or FLAG-tagged, for sandwich ELISA (UniProt P14416); experiment: ELISA; sandwich ELISA: COS7 cells co-transfected with an NHA-tagged and a C-Flag-tagged receptor (and reversely tagged, data pooled), lysed 48 h after transfection, lysate on an anti-Flag-M2 coated plate, detected with biotin-labeled anti-HA antibody and streptavidin-HRP; fold over mock …
# [4] = molecular target: serotonin receptor 1b (5-HT1b), NHA- or C-Flag-tagged, for sandwich ELISA (human) (UniProt P28222); experiment: as above
# [5] = molecular target: trace amine associated receptor 1 (TAAR1), NHA- or C-Flag-tagged, for sandwich ELISA (human) (UniProt Q96RJ0); experiment: as above
molecule,measurement,setting,value
"growth hormone secretagogue receptor (GHSR), NHA- or FLAG-tagged, for sandwich ELISA (from UniProt Q92847 1-366)",binding,[1],binds
"growth hormone secretagogue receptor (GHSR), CFP- or YFP-tagged, for FRET (from UniProt Q92847 1-366)",binding,[2],binds
B1,binding,[3],binds
same,binding,[4],binds
same,binding,[5],binds

# From PMC5857711
